Source: paper PMC5626683
These are yes or no findings as the source states them, for the method shown. Some entries that bind do so weakly or less than the wild type. Tags and fused reporters may be left off the sequences shown.

Molecular target: MreC from Helicobacter pylori (residues 37-248), GST removed by thrombin (H. pylori) (UniProt B5Z916)
Assay: crystal structure; PBP2:MreC complex (GST removed), vapor diffusion at 20 °C, 5% PEG 6000, 50 mM citric acid pH 5.0, 9 mM ZnCl2; 2 PBP2 and 4 MreC in the asymmetric unit; both purified

- binding: binds
B1: MreC from Helicobacter pylori (residues 37-248), GST removed by thrombin (domain or fragment, UniProt B5Z916 37-248)
chain: LMSAKNSLLDNIQAYFFQAKNIKEFQKERLILEALKLENADLKERLNSVYPLENPKMIYSPTFMTSFISLEDTHSVSLNPIVNLEENKIYGLVSHNQAIGIAVLEKGRLNGFLNAHKRCAYSVMIGKNQVLGFIGSNFKQELVVDFIVPSAEINIGDQVLTSGLDGIFGAGVFVGEVSSVEDHYTYKSAVLKNAFLSEAKLLRHVFLSDVKN
